In PubChem BioAssay AID493014 (National Center for Advancing Translational Sciences (NCATS), 2011) one finds AC50 data, which are given here for 39 compounds.

A short description of this assay: qHTS Assay to Find Inhibitors of Chronic Active B-Cell Receptor Signaling. The settings on record: ABC-DLBCL IkBa-CBG/CBR reporter, luminescence ratio (green luciferase fused to IkBa over red control in TMD8 lymphoma cells), 4 h. In a few lines:
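Compounds up to 46 uM were incubated four hours with TMD8 cells whose green CBG68 luciferase is fused to IkappaBalpha; red CBR luminescence normalised the signal, and concentration-effect curves were fitted to fusion, red and ratio data.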
(In qHTS, concentration-response curves come from the screen itself.)

[1] abbreviates: measured here: CBR red luminescence, cell number.
The mark [2] stands for this setting: measured here: IkBa-CBG green luminescence.

Molecules are shown by their SMILES. Where “and” joins values, the source holds several entries; their conditions need not be identical. Equal values may be shown once. The list shows a part of the results. Further columns of the screen follow, without active or inactive calls. Most of these compounds were active or inconclusive in the main read-out, so they are no random draw. The note in brackets gives the kind of curve behind each potency; many fits are weak.

What is called AC50 is the concentration at which the activity in the assay is half-maximal.

Consider `O=[N+]([O-])c1cccc(/C=N/Nc2ccccn2)c1`, for which the half-maximal activity concentration (AC50) under setting [1] was 2.82 µM [rising, full curve, poor fit].
Turning to `c1ccc(N2CCN(c3nc4cc5c(cc4s3)OCO5)CC2)cc1`, the AC50 under setting [1] is 0.00411 µM [rising, full curve, poor fit].
As to `C/C(=N/Nc1nc(C)c(C)s1)c1cccc([N+](=O)[O-])c1`, the AC50 was 4.47 µM [rising, full curve] under setting [1] and 6.31 µM [falling, partial curve, poor fit] under setting [2].
As to `COc1nc(-c2ccc(Cl)cc2Cl)nc2ccccc12`, the half-maximal activity concentration (AC50) under setting [1] is 7.94 µM [rising, partial curve].
The same measure, in the same setting: to `Cc1nc2ccccc2c2oc(C(=O)N3CCc4ccccc43)cc12` belongs 3.55 µM [rising, full curve, poor fit]; to `O=C(NCc1cccc(C(F)(F)F)c1)C1CC(c2ccc(C(F)(F)F)cc2)=NO1` (stereo unspecified), 10 µM [falling, partial curve, poor fit].
As for `CCCOc1ccc(C(=O)CCC(=O)Nc2ccc(N3CCN(C)CC3)cc2)cc1`, the AC50 under setting [1] is 0.116 µM [rising, full curve, poor fit].
As to `Cc1nc2ccc(Cl)cc2nc(C)/c1=N\O`, the AC50 under setting [1] was 6.31 µM [rising, single point].
Same read-out and setting: to `Cc1cc(C)cc(N(CCC#N)C(=O)CSc2ncnc3sccc23)c1` belongs 4.11 µM [rising, partial curve, poor fit].
Still for that read-out and setting: the same measure for `O=C(CCS(=O)(=O)Cc1cccc(Cl)c1)NCCc1ccccc1`: 6.31 µM [falling, single point].
On to `Cc1noc(C)c1COC(=O)CCc1nc2ccccc2s1`, for which the AC50 under setting [1] was 35.5 µM [rising, partial curve, poor fit].
On the same count and under the same terms, the same measure for `O=C(Nc1nc(=O)n(C(=O)C2CC2)s1)c1ccccc1`: 1.46 µM [rising, partial curve, poor fit].
The same measure, in the same setting: to `O=C(N/N=C/C(Br)=C/c1ccccc1)c1cccs1` belongs 14.1 µM [falling, partial curve, poor fit].
Still for that read-out and setting: to `COc1ccc2c(-c3ccccc3)cc(SCC(=O)N(C)C3CCS(=O)(=O)C3)nc2c1` (stereo unspecified) belongs 29.1 µM [falling, single point]; to `COCC(=O)N(Cc1nc2ccccc2c(=O)[nH]1)Cc1cccs1`, 11.6 µM [rising, partial curve, poor fit].
Consider `Fc1cccc2sc(Nc3nc4ccccc4s3)nc12`, for which, under setting [1], the AC50 was 1.64 µM [rising, partial curve, poor fit].
Take `CC(=O)n1cc([C@H]2C=C(C(=O)Nc3ccccc3)O[C@@H](OCCCCO)C2)c2ccccc21`: the AC50 under setting [1] was 11.2 µM [falling, partial curve, poor fit].
Regarding `COc1cc(C(C(=O)NC2CCCC2)N(C(=O)Cc2cccs2)C2CC2)cc(OC)c1OC` (stereo unspecified), the AC50 under setting [1] was 35.5 µM [rising, partial curve, poor fit].
For the compound `COc1ccc(NC(=O)C(=S)NC2CCCCC2)cc1`, the AC50 under setting [1] was 11.2 µM [falling, partial curve, poor fit].
With `Cc1oc(-c2cccc(Cl)c2)nc1CSCC(=O)O`, the AC50 is 6.51 nM [falling, full curve, poor fit] and 10 µM [falling, partial curve] under setting [1]; 0.013 µM [rising, full curve, poor fit] under setting [2].
Turning to `Cn1c(-c2ccccc2)cnc1SCC(=O)N1CCCCC1`, the AC50 under setting [1] is 3.66 µM [rising, partial curve, poor fit].
`CC(C)(C)C(=O)OCCNc1nc(-c2ccccc2)nc2ccccc12`: the AC50 under setting [1] was 29.1 µM [falling, single point].
On the same count and under the same terms, the same measure for `CCC(C)[C@H](NC(=O)N1CCn2c1nc1ccccc12)C(=O)NCC1CCCO1` (stereo partly specified): 35.5 µM [falling, partial curve, poor fit]; for `Cc1oncc1C(=O)Nc1ccc(C(F)(F)F)cc1`: 8.91 µM [falling, partial curve]; for `COc1ccc(NC(=O)c2ccc(NC(=O)c3cccs3)cc2)cc1`: 3.16 µM [rising, full curve, poor fit].
On to `Cc1cccc2cc(CN(CCN(C)C)C(=S)NCc3ccco3)c(=O)[nH]c12`, for which, under setting [1], the AC50 was 29.1 µM [falling, single point].
`C/C=C\C=C/C(=O)Nc1cccc(C2=NOC3(C2)C[C@@H](C(N)=O)N(C(=O)c2ccccc2)C3)c1` (stereo partly specified): under setting [1], the AC50 was 4.47 µM [falling, partial curve, poor fit].
Same read-out and setting: the same measure for `Cc1nn(Cc2ccc(Cl)cc2Cl)c(Cl)c1/C=N/NC(=O)CNc1cccc(C(F)(F)F)c1`: 4.61 µM [rising, partial curve, poor fit].
Same read-out and setting: to `COc1ccccc1NC(=S)NNC(=O)c1nn(C)c(C)c1Cl` belongs 20.6 µM [falling, partial curve].
The same measure, in the same setting: the same measure for `Cc1ccc(-c2n[nH]c(=S)n2/N=C/c2c(C)nn(-c3ccccc3)c2C)cc1`: 2.59 µM [rising, partial curve, poor fit]; for `N#Cc1nc(Cc2ccccc2)oc1NCCc1ccccc1`: 3.98 µM [rising, single point]; for `C#CCOc1ccc(/C=C2/C(=O)NN(c3ccc(F)cc3)C2=O)cc1OC`: 0.316 µM [rising, single point].
As for `Cc1ccc(-c2nn(-c3ccccc3)cc2/C=N/n2c(-c3cccs3)n[nH]c2=S)cc1`, the AC50 under setting [1] was 35.5 µM [rising, single point].
As for `Cc1cc(N2CCOCC2)c2c(N)cc(C)c(C)c2n1`, the AC50 under setting [1] is 29.1 µM [rising, single point].
Same read-out and setting: the same measure for `Cc1ccccc1C(=O)Nc1ccc(C(=O)N/N=C/c2ccc(O)c(Br)c2)cc1`: 10 µM [falling, partial curve, poor fit]; for `NS(=O)(=O)c1ccc(NC(=O)Nc2cccc3ccccc23)cc1`: 3.98 µM [falling, full curve].
Same read-out and setting: the same measure for `COc1ccc2[nH]c3c(c2c1)CCN1C(=O)C(CC(=O)NC(C)(C)C)C[C@H](C(=O)N2CCCCC2)[C@@]31C` (stereo partly specified): 0.164 µM [rising, full curve, poor fit]; for `CNc1ccc(OC(F)F)cc1C(=O)c1ccccc1`: 35.5 µM [rising, single point].
Still for that read-out and setting: the same measure for `Cc1cccc2sc(NC(=O)CCNC(=O)c3ccco3)nc12`: 7.31 µM [falling, partial curve].
